Values joined by “and” are separate entries in the source; they are usually repeats but may differ in a detail not shown here. Equal entries are not always repeated. Among all 340,000 compounds or so, about 170 (0.05%) were called active. Inconclusive means that the source gave no clear call. Such entries were picked first, then a sample of the others. Calls follow the shape of the dose curve; as a rule, active = well fitted inhibition curve with a large enough effect in the signal ratio, with a control signal flat (not every such curve was filed as active); inconclusive = small, poorly fitted or top-dose-only effect, or effect the other way, or a change in a side signal; inactive = flat fitted curve, though single readings scatter; the % refers to the signal ratio. Potencies of inconclusive entries are doubtful fits and often do not repeat.
Test: qHTS Assay to Find Inhibitors of Chronic Active B-Cell Receptor Signaling;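 as to activity change, negative = inhibition: plate controls were basal doxycycline-induced cells for no effect and cells given 10 µM MG132 for full effect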
Conditions: ABC-DLBCL IkBa-CBG/CBR reporter, luminescence ratio (green luciferase fused to IkBa over red control in TMD8 lymphoma cells), 4 h; activity change, negative = inhibition: at 46.1 µM (top of the series)
Summary of the method: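 Concentration-response series (up to 46 uM) were applied to TMD8 dual-reporter cells for 4 h at 37C with doxycycline. Green/red ratio, after filter-overlap correction, defined %Activity; red signal alone was normalised to basal cells and zero luminescence.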
Potency is read from the fitted curve at half-maximal effect.

Structure (SMILES)	activity change, negative = inhibition	Potency
COc1ccc(Br)cc1S(=O)(=O)N1CCN=C1c1ccccc1	inactive	–
CCc1ccc(/C=N/NC(=O)c2cc(C3CC3)nc3ccc(Br)cc23)s1	–	inconclusive: 14.6 µM [falling, partial curve]
COc1ccc(-c2nnc(SCC(=O)Nc3ncc(C)s3)n2-c2ccccc2)cc1OC	inconclusive: 6.49%	–
Cc1ccc(NC2=C([N+](=O)[O-])CS(=O)(=O)C2)cc1	–	inconclusive: 29.1 µM [falling, single point]
CC1Cc2ccccc2N1CC(=O)NC(=O)NCc1ccco1 (stereo unspecified)	inconclusive: 9.02%	–
O=C(O)C1CCCC2CN3CCc4c([nH]c5ccccc45)C3C(O)C21 (stereo unspecified)	–	inconclusive: 3.98 µM [falling, full curve, poor fit]
COc1cccc(-c2nn(-c3ccccc3)cc2CN(C)C(C)c2ccncn2)c1 (stereo unspecified)	inactive	–
COc1ccccc1N(CC(=O)NC1CCCCC1)C(=O)c1csnn1	–	inconclusive: 16.4 µM [falling, partial curve]
Cc1ccc2c(c1)C(c1ccccc1)N(C(=O)c1ccccc1)CC(=O)N2 (stereo unspecified)	inactive	–
COC(=O)C1=C(C)N(Cc2ccccc2)C(=NCCc2ccccn2)N[C@H]1c1cccc(F)c1	inconclusive: -15.4% and inconclusive: -16.7%	–
COc1ccccc1C(=O)NCC(c1cccnc1)N(C)C (stereo unspecified)	inconclusive: 0.442%	–
O=c1oc2c3c4c(cc2s1)CCCN4CCC3	inconclusive: 0.267%	–
Cc1ccc(Cl)cc1NC(=S)N(CCCN1CCN(C)CC1)Cc1cccs1	inactive	–
CCOc1ccc(C2C(=O)N(C3CCCCC3)CC(=O)N2Cc2ccccc2OC)cc1OC (stereo unspecified)	inactive	–
O=c1c2ccccc2c(C=Nc2ccc(O)cc2)c(O)n1-c1nccs1	inactive	–
CCc1ccccc1OCc1nc2ccc(S(=O)(=O)N3CCOCC3)cc2[nH]1	–	inconclusive: 6.51 µM [falling, full curve, poor fit]
CN(Cc1ccc(F)cc1)Cc1nc(-c2cnccn2)no1	inactive	–
COc1ccc(N2CC(C(=O)Nc3nc4ccc(F)cc4s3)CC2=O)c(OC)c1 (stereo unspecified)	inconclusive: 12.8%	–
COc1ccc(-c2cc(C(F)(F)F)n3ncc(C(=O)N(C)Cc4ccccc4)c3n2)cc1	–	inconclusive: 2.82 µM [falling, full curve]
Cc1cccc2cc(CN(Cc3ccco3)C(=O)c3cccs3)c(=O)[nH]c12	inconclusive: -0.639%	–
CCC(C)[C@@H](C(=O)Nc1ccc(OC)c(OC)c1)N1Cc2ccccc2C1=O (stereo partly specified)	inconclusive: -26%	–
Fc1cccc(Cl)c1CN1CCN(c2nc3ccccc3s2)CC1	inconclusive: 5.19%	–
CCOC(=O)CSc1nc2sc3c(c2c(=O)n1-c1ccccc1)CCN(C)C3	inconclusive: 7.61%	–

3 compounds already listed, sorted by length of the SMILES, smallest number first:
Structure (SMILES)	activity change, negative = inhibition	Potency
COc1ccccc1C(=O)NCC(c1cccnc1)N(C)C (stereo unspecified)	inconclusive: 0.442%	–
O=c1c2ccccc2c(C=Nc2ccc(O)cc2)c(O)n1-c1nccs1	inactive	–
CCc1ccc(/C=N/NC(=O)c2cc(C3CC3)nc3ccc(Br)cc23)s1	–	inconclusive: 14.6 µM [falling, partial curve]

Later entries:

Structure (SMILES)	activity change, negative = inhibition	Potency
C=CCSc1nc2c(c(=O)[nH]c(=O)n2C)n1C(C)C	inconclusive: -18.4%	–
COc1ccc(C(=O)c2cc([N+](=O)[O-])ccc2N2CCN(C)CC2)cc1	–	inconclusive: 12.6 µM [falling, partial curve]
O=C(N/N=C/C(Cl)=C/c1ccccc1)c1ccccc1F	–	inconclusive: 15.8 µM [falling, partial curve]
COc1cccc(NC(=O)Nc2c(C)n(C)n(-c3ccccc3)c2=O)c1	–	inconclusive: 0.00731 µM [rising, full curve, poor fit]
COc1ccccc1-n1cc(-c2ccccc2)c2c(=S)nc[nH]c21	inactive	–
CCN(CC)c1ccc(-c2sc(Nc3ccccc3)n[n+]2-c2ccc(F)cc2)cc1	–	inconclusive: 12.6 µM [falling, partial curve, poor fit]
O=C1CC(c2ccccc2)CC(O)=C1C=Nc1ccccc1Cl (stereo unspecified)	inconclusive: -9.34%	–
O=C(Nc1nc(-c2ccccc2)cs1)C1CCCN(S(=O)(=O)c2ccccc2)C1 (stereo unspecified)	inconclusive: 3.41%	–
Cc1cc(N2CCN(c3cccc(C(F)(F)F)c3)CC2)n2nc(C)nc2n1	inconclusive: 7.58%	–
COc1ccc(NC(=O)CSCC(=O)N(C)CC(=O)Nc2ccc(Cl)c(C(F)(F)F)c2)cc1	–	inconclusive: 20.6 µM [falling, partial curve, poor fit]
CCn1cc(/C=C/C(=O)Nc2c(C)nn(Cc3ccccc3)c2C)cn1	inactive	–
COc1cc2c(cc1OC)[C@@H]1O[C@](CCCCN3C(=O)c4ccccc4C3=O)(C2)Oc2cc(C)n(-c3ccccc3)c(=O)c21	–	inconclusive: 1.58 µM [activator, partial curve]
C/C(Cn1nnc([N+](=O)[O-])n1)=N\NC(=O)c1ccccc1	–	inconclusive: 31.6 µM [rising, single point]
O=C(N/N=C/C(Br)=C\c1ccccc1)c1cccs1	–	inconclusive: 31.6 µM [rising, single point]
CCCNC(=O)OC[C@H]1O[C@H](CCO/N=C/C[C@@H]2C=C[C@H](OC(C)=O)[C@@H](COC(C)=O)O2)C=C[C@@H]1Oc1ccc(OC)cc1	–	inconclusive: 29.1 µM [falling, single point]
COc1cc2c(cc1OC)C1O[C@](CCCCN3C(=O)c4ccccc4C3=O)(C2)Oc2cc(C)n(Cc3ccccc3)c(=O)c21	–	inconclusive: 2.51 µM [rising, partial curve, poor fit]
Cc1ccc(CSC(Nc2ccc(F)cc2)=C(C#N)C#N)cc1	inconclusive: -9.71%	–
Cn1c(NN)nc2c1c(=O)n(Cc1ccccc1)c(=O)n2C	inconclusive: 10.5%	–
O=C(CCS(=O)(=O)Cc1ccc(Cl)cc1)NCCCN1CCN(c2ccccc2F)CC1	inconclusive: -0.0362%	–
Cc1ccc2sc(N(CCCN(C)C)C(=O)c3ccc(S(=O)(=O)N(C)C)cc3)nc2c1C	inconclusive: 2.59%	–
COc1cccc(Nc2nc3ccc(OC)cc3s2)c1	–	inconclusive: 31.6 µM [falling, single point]
O=C(O)c1ccccc1NC(=S)NC(=O)c1cccc2ccccc12	–	inconclusive: 31.6 µM [falling, single point]
O=C(NCc1ccccn1)c1cc(-c2ccccc2)on1	inconclusive: -15.2%	–
